Assay results: PubChem BioAssay AID1918958 (Molecular Pharmacology Branch, DTP, NCI, 2023)
Further values from the same series stand in other lists.

Tested on: NCI-H196 complex spheroid viability
Test: Anticancer human tumor NCI-H196 cell line growth inhibition [LSD1];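 note: spheroids exposed to agents for 7 days before readout; 100% = DMSO vehicle control viability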
Conditions: stronger effect = lower value
Excerpt: Multicellular complex tumor spheroid response to LSD1 Inhibitor Iadademstat in combination with a variety of drugs and investigational agents in selected tumor cell lines
The current study was undertaken to assess response to LSD1 inhibitors in combination with standard-of-care drugs and investigational agents in solid tumor complex spheroid models as well as in the K-562 leukemia. Complex spheroids include a stromal component modeled by human endothelial cells (HUVEC) and fibroblasts modeled by human mesenchymal stem cells (MSCs). The concentration ranges selected for each drug and investigational agent were based upon clinically achievable concentrations if the clinical Cmax of the agent was known.
Compounds. The drugs and investigational agents used in this study are listed on Table 1. All of the agents used, including staurosporine (NSC755774) and gemcitabine (NSC613327), were obtained from the Developmental Therapeutics Program, NCI. FDA-approved anticancer drugs are available from the NCI at http://dtp.nci.nih.gov/branches/dscb/oncology_drugset_explanation.html. Drugs and investigational agents were >95% pure by proton nuclear magnetic resonance (NMR) and liquid chromatography/mass spectrometry (LC/MS). Stock solutions were prepared at 400x in DMSO, stored at -70 degrees C, and diluted in fresh medium prior to their use. The final concentration of DMSO in cell culture wells never exceeded 0.25% (v/v). The FDA-approved anticancer drug set is available from the Developmental Therapeutics Program at https://dtp.cancer.gov/organization/dscb/obtaining/available_plates.htm. All drugs and investigational agents were tested over a range starting from a high concentration at or near the clinical Cmax and decreasing in half-log increments. If the clinical Cmax for an agent had not been determined, the highest concentration tested was 10 microM.
Cell Lines. […]

SMILES	viability, T/C (compound 0.316 µM)	viability, T/C (compound 10 µM) [%]	viability, T/C (compound 0.1 µM)
NC1CCC(NC2CC2c2ccccc2)CC1 (stereo not drawn)	99.2% [middle of 23 runs]	88.9	
NC1CC1c1ccc(-c2cccc(O)c2)cc1 (stereo not drawn)			95.5% [middle of 25 runs]
